{"source": "patent US20210030867A1", "about": "“ADJUVANT COMPOSITION CONTAINING ALUMINUM AND VACCINE COMPOSITION CONTAINING THE SAME” (TERUMO KABUSHIKI KAISHA, priority 2015, published 2021)", "assay": "Release test (measurement of leakage; membrane-disruption function)", "settings": "labelled pH-sensitive compound alone", "procedure": "The term “membrane-disruption function” means a function to bring about release in the release test. The release test described herein is a test consisting of the steps of adding liposomes (dispersion) embracing an aqueous solution containing a quenching substance and a fluorescent substance and a dispersion of an evaluation sample to a properly pH-adjusted aqueous solution, incubating the resulting aqueous solution at 37° C. for 90 minutes or 30 minutes, and measuring the intensity of fluorescence of the incubated aqueous solution. […]\nThe leakage was evaluated according to the method described in K. Kono et al., Bioconjugate Chem. 2008 19 1040-1048. […]\n3,000 nmol of EYPC dissolved in chloroform was measured and placed in a 10-mL eggplant-shaped flask, and the EYPC was made into thin film by means of a rotary evaporator. […] The concentration of the phospholipid was determined using phospholipid C-test Wako, and it was adjusted with MES Buffer so that phospholipid became 1.0 mmol/L. […]\nNote that the leakage was calculated assuming that the value in the case of using the dispersion alone of EYPC liposomes is 0% and the value in the case of adding 30 μL of 10-fold diluted Triton-X100 is 100%. Specifically, the leakage was calculated according to the following formula. […]", "note": "At least one compound was matched to its structure with a doubt left.", "data": [{"compound": "C[C@H](CCC(=O)O)[C@H]1CC[C@H]2[C@@H]3[C@@H](O)C[C@@H]4C[C@H](O)CC[C@]4(C)[C@H]3CC[C@]12C", "note": "[Ursodeoxycholic acid]", "values": [{"measurement": "pH 5.0 Leakage (%) La5.0 pH-sensitive compound alone", "setting": "pH 5.0", "result": 2.6, "unit": "%"}, {"measurement": "pH 7.4 Leakage (%) La7.4 pH-sensitive compound alone", "setting": "pH 7.4", "result": 0.8, "unit": "%"}]}]}
